# Library screening results

Results are given as percent effect.
How 0% and 100% were set is not recorded. Most values in the screen are low, and negative values occur.
The compounds are a random part of those screened.

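Whole-cell assay for inhibitors of Mycobacterium tuberculosis growth, labelled Cornell in the record; the read-out is not stated. The concentration is filed as 10 mM, unlikely as a test dose, so the dose is not known. Higher means stronger inhibition (inferred from two other growth screens of the library). Size under these conditions: about 53,000 compounds, about 900 of them at 50% or above in at least one test.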

{"smiles": "Cc1nc(-c2ccco2)ccc1C(=O)NCCCN1CCOCC1", "percent effect": 4.204}
{"smiles": "COCCC(=O)N1CCc2c(CNc3ncccn3)cncc2C1.Cl", "percent effect": -9.55}
{"smiles": "[H][C@@]12CCN(Cc3nccs3)C[C@@]1([H])O[C@@H](c1ccncn1)C2", "percent effect": 3.676}
{"smiles": "CN(CC(=O)NC1CC1)S(=O)(=O)c1ccc(F)cc1Cl", "percent effect": -28.62}
{"smiles": "COc1ccc2cc(CN(C)CCN3CCCCC3=O)c(=O)[nH]c2c1", "percent effect": -14.25}
{"smiles": "Cc1noc(C)c1Cn1cc(I)cc(C)c1=O", "percent effect": 13.17}
{"smiles": "[H][C@@]12OCCN(C(=O)c3nn(C)c4ccccc34)[C@@]1([H])CC[C@@H]2OC", "percent effect": -12.03}
{"smiles": "COc1cnc(CN2CC(=O)N(c3ccc(C)cc3)CC2C)cc1O", "stereo": "stereo not given", "percent effect": 1.563}
{"smiles": "Cc1ccc(CNC2(Cc3cc(-c4ccc(F)cc4)on3)COC2)o1", "percent effect": 20.8}
{"smiles": "CC(Cc1ccc2c(c1)OCO2)c1cn(CCN2CCCC2)nn1", "stereo": "stereo not given", "percent effect": 22.24}
{"smiles": "O=C1NC2(CCCN(C(=O)CCn3cncn3)C2)Oc2ccccc21", "stereo": "stereo not given", "percent effect": -1.144}
{"smiles": "[H][C@]12CNC[C@@]1(C(=O)NCC1(COC)CC1)CN(C1CCCC1)C2", "percent effect": 35.98}
{"smiles": "OCC1CCN(Cc2cc3c(cc2Br)OCCO3)CC1", "percent effect": -8.735}
{"smiles": "O=C(O)C(F)(F)F.[H][C@@]12OCCN(C(C)=O)[C@@]1([H])CC[C@H]2OCCCn1cccn1", "percent effect": -4.804}
{"smiles": "COCC1CN(C(=O)Cc2ccccn2)Cc2c1cnn2CC1CC1.O=C(O)C(F)(F)F.O=C(O)C(F)(F)F", "stereo": "stereo not given", "percent effect": -4.411}
{"smiles": "COCC(O)CN(C)C(=O)c1cccc(-c2csc(C)n2)c1", "stereo": "stereo not given", "percent effect": 14.56}
{"smiles": "CCCC(NC(=O)c1cc(C)n(C2CC2)c1C)c1nnn[nH]1", "stereo": "stereo not given", "percent effect": 14.44}
{"smiles": "O=C(O)C(F)(F)F.[H][C@@]12CCCO[C@]1([H])[C@H](NC(=O)c1cnoc1C)CN(c1ncccn1)C2", "percent effect": 24.88}
{"smiles": "c1cncc(-c2noc(CN3CCCC3Cn3cccn3)n2)c1", "stereo": "stereo not given", "percent effect": 45.92}
{"smiles": "Cc1cc(C(=O)N2CCCC2c2c(C)nn(C)c2C)no1", "stereo": "stereo not given", "percent effect": -10.29}
{"smiles": "CNc1[nH]nc(N)c1NC(=O)c1ccccc1", "percent effect": 107.3}
{"smiles": "COc1ccc(-c2cnc(CN(CC(N)=O)C3CCCC3)o2)cc1", "percent effect": 4.862}
{"smiles": "COC1CCCN(c2nc(C)nc3c2CCN(Cc2ccco2)CC3)C1", "stereo": "stereo not given", "percent effect": -0.3167}
{"smiles": "O=C(O)C(F)(F)F.[H][C@]12CCN(C(=O)c3ccnnc3)CC[C@]1([H])N(CCOC)CCO2", "percent effect": 16.06}
{"smiles": "CC(SCCC(=O)NC(N)=O)c1ccccc1F", "stereo": "stereo not given", "percent effect": 18.57}
{"smiles": "Cc1noc(C)c1CCC(=O)N[C@@H]1CC[C@@H](Oc2cccnc2)[C@@H]1O", "percent effect": 15.37}
{"smiles": "CCc1ccc(C(NCC(N)=O)C(C)(C)C)o1", "stereo": "stereo not given", "percent effect": -3.877}
{"smiles": "CCc1ncc(CN2CCc3nc4sc(C)cc4c(=O)n3CC2)cn1", "percent effect": -15.37}
{"smiles": "O=C(O)C(F)(F)F.O=C(O)C(F)(F)F.c1cncc(N2CCCC3(CCN(CCN4CCCC4)CC3)C2)c1", "percent effect": -2.626}
{"smiles": "Cc1cc(C)nc(C2CCN(C(=O)c3cnco3)C2)n1", "stereo": "stereo not given", "percent effect": -3.305}
{"smiles": "O=C(c1cccs1)N1CCCC(c2cc(C(F)F)n3ncnc3n2)C1", "stereo": "stereo not given", "percent effect": 7.363}
{"smiles": "Cc1cnn(CC2CCCCN2C(=O)c2ccc3c(c2)nnn3C)c1", "stereo": "stereo not given", "percent effect": 11.17}
{"smiles": "Cc1csc(CNC(=O)Nc2cc(C(F)(F)F)c[nH]c2=O)n1", "percent effect": 14.02}
{"smiles": "CC(=O)NCCc1ccc(S(=O)(=O)Nc2ccc(C)c(F)c2)s1", "percent effect": -0.329}
{"smiles": "CC(C)c1ncc(-c2cc(C3CCC3)nc(N)c2C#N)cn1", "percent effect": 15.3}
{"smiles": "Cn1ncc2c(=O)[nH]c(CN3CCCc4cc(F)cc(F)c43)nc21", "percent effect": -0.7113}

3 of the entries, repeated:

{"smiles": "O=C(O)C(F)(F)F.O=C(O)C(F)(F)F.c1cncc(N2CCCC3(CCN(CCN4CCCC4)CC3)C2)c1", "percent effect": -2.626}
{"smiles": "[H][C@@]12OCCN(C(=O)c3nn(C)c4ccccc34)[C@@]1([H])CC[C@@H]2OC", "percent effect": -12.03}
{"smiles": "Cc1ccc(CNC2(Cc3cc(-c4ccc(F)cc4)on3)COC2)o1", "percent effect": 20.8}

Measurements from “University of Dundee, Small-Polar-MMV Screening Library” (2021), ChEMBL document CHEMBL3988442.